Results published in ChEMBL document CHEMBL4316593 (Eur J Med Chem, 2019).
Further values from the same series stand in other lists.

Assays:
Format in all cases: cell-based
Conditions in all cases: U-87MG ATCC
[1] = Inhibition of RTK/PI3K/AKT/mTOR signaling in human U87 cells assessed as up regulation of stathmin 3 gene expression at cytotoxic IC50 measured after 48 hrs relative to control
[2] = Inhibition of RTK/PI3K/AKT/mTOR signaling in human U87 cells assessed as up regulation of neuroligin 2 gene expression at cytotoxic IC50 measured after 48 hrs relative to control
[3] = Inhibition of RTK/PI3K/AKT/mTOR signaling in human U87 cells assessed as down regulation of DNAJB4 gene expression at cytotoxic IC50 measured after 48 hrs relative to control
[4] = Inhibition of RTK/PI3K/AKT/mTOR signaling in human U87 cells assessed as up regulation of MAGT1 gene expression at cytotoxic IC50 measured after 48 hrs relative to control
[5] = Inhibition of RTK/PI3K/AKT/mTOR signaling in human U87 cells assessed as down regulation of RFTN1 gene expression at cytotoxic IC50 measured after 48 hrs relative to control
[6] = Inhibition of RTK/PI3K/AKT/mTOR signaling in human U87 cells assessed as up regulation of CTD nuclear envelope phosphatase 1 gene expression at cytotoxic IC50 measured after 48 hrs relative to control
[7] = Inhibition of RTK/PI3K/AKT/mTOR signaling in human U87 cells assessed as down regulation of YRDC gene expression at cytotoxic IC50 measured after 48 hrs relative to control
[8] = Inhibition of RTK/PI3K/AKT/mTOR signaling in human U87 cells assessed as down regulation of CRNKL1 gene expression at cytotoxic IC50 measured after 48 hrs relative to control
[9] = Inhibition of RTK/PI3K/AKT/mTOR signaling in human U87 cells assessed as down regulation of PSMF1 gene expression at cytotoxic IC50 measured after 48 hrs relative to control
[10] = Inhibition of RTK/PI3K/AKT/mTOR signaling in human U87 cells assessed as down regulation of HTATSF1 gene expression at cytotoxic IC50 measured after 48 hrs relative to control
[11] = Inhibition of RTK/PI3K/AKT/mTOR signaling in human U87 cells assessed as up regulation of TMEM173 gene expression at cytotoxic IC50 measured after 48 hrs relative to control
[12] = Inhibition of RTK/PI3K/AKT/mTOR signaling in human U87 cells assessed as down regulation of DCXR gene expression at cytotoxic IC50 measured after 48 hrs relative to control
[13] = Inhibition of RTK/PI3K/AKT/mTOR signaling in human U87 cells assessed as down regulation of AHCYL2 gene expression at cytotoxic IC50 measured after 48 hrs relative to control
[14] = Inhibition of RTK/PI3K/AKT/mTOR signaling in human U87 cells assessed as down regulation of GRHL1 gene expression at cytotoxic IC50 measured after 48 hrs relative to control
[15] = Inhibition of RTK/PI3K/AKT/mTOR signaling in human U87 cells assessed as down regulation of SH3BP5L gene expression at cytotoxic IC50 measured after 48 hrs relative to control
[16] = Inhibition of RTK/PI3K/AKT/mTOR signaling in human U87 cells assessed as up regulation of PC gene expression at cytotoxic IC50 measured after 48 hrs relative to control
[17] = Inhibition of RTK/PI3K/AKT/mTOR signaling in human U87 cells assessed as down regulation of USP20 gene expression at cytotoxic IC50 measured after 48 hrs relative to control
[18] = Inhibition of RTK/PI3K/AKT/mTOR signaling in human U87 cells assessed as down regulation of HIF1AN gene expression at cytotoxic IC50 measured after 48 hrs relative to control
[19] = Inhibition of RTK/PI3K/AKT/mTOR signaling in human U87 cells assessed as down regulation of ANKRD18A gene expression at cytotoxic IC50 measured after 48 hrs relative to control
[20] = Inhibition of RTK/PI3K/AKT/mTOR signaling in human U87 cells assessed as down regulation of RNASEH2C gene expression at cytotoxic IC50 measured after 48 hrs relative to control
[21] = Inhibition of RTK/PI3K/AKT/mTOR signaling in human U87 cells assessed as up regulation of mindbomb E3 ubiquitin protein ligase 2 gene expression at cytotoxic IC50 measured after 48 hrs relative to control
[22] = Inhibition of RTK/PI3K/AKT/mTOR signaling in human U87 cells assessed as down regulation of MAP3K9 gene expression at cytotoxic IC50 measured after 48 hrs relative to control
[23] = Inhibition of RTK/PI3K/AKT/mTOR signaling in human U87 cells assessed as down regulation of VPS25 gene expression at cytotoxic IC50 measured after 48 hrs relative to control
[24] = Inhibition of RTK/PI3K/AKT/mTOR signaling in human U87 cells assessed as down regulation of ZNF14 gene expression at cytotoxic IC50 measured after 48 hrs relative to control
[25] = Inhibition of RTK/PI3K/AKT/mTOR signaling in human U87 cells assessed as down regulation of EPG5 gene expression at cytotoxic IC50 measured after 48 hrs relative to control
[26] = Inhibition of RTK/PI3K/AKT/mTOR signaling in human U87 cells assessed as down regulation of SETX gene expression at cytotoxic IC50 measured after 48 hrs relative to control
[27] = Inhibition of RTK/PI3K/AKT/mTOR signaling in human U87 cells assessed as up regulation of SCNN1A gene expression at cytotoxic IC50 measured after 48 hrs relative to control
[28] = Inhibition of RTK/PI3K/AKT/mTOR signaling in human U87 cells assessed as up regulation of ADGRG1 gene expression at cytotoxic IC50 measured after 48 hrs relative to control
[29] = Inhibition of RTK/PI3K/AKT/mTOR signaling in human U87 cells assessed as down regulation of RAD54L2 gene expression at cytotoxic IC50 measured after 48 hrs relative to control
[30] = Inhibition of RTK/PI3K/AKT/mTOR signaling in human U87 cells assessed as up regulation of GSN gene expression at cytotoxic IC50 measured after 48 hrs relative to control
[31] = Inhibition of RTK/PI3K/AKT/mTOR signaling in human U87 cells assessed as down regulation of RAD54L gene expression at cytotoxic IC50 measured after 48 hrs relative to control
[32] = Inhibition of RTK/PI3K/AKT/mTOR signaling in human U87 cells assessed as up regulation of stearoyl-CoA desaturase 5 gene expression at cytotoxic IC50 measured after 48 hrs relative to control

CC(=O)C(=NNc1ccccc1C#N)C(C)=O
log2FC [1]: 1.36
log2FC [2]: 1.03
log2FC [3]: -1.23
log2FC [4]: 0.582
log2FC [5]: -3.54
log2FC [6]: 0.76
log2FC [7]: -0.846
log2FC [8]: -0.647
log2FC [9]: -0.447
log2FC [10]: -0.488
log2FC [11]: 1.89
log2FC [12]: -0.676
log2FC [13]: -0.695
log2FC [14]: -1.16
log2FC [15]: -0.647
log2FC [16]: 1.86
log2FC [17]: -0.827
log2FC [18]: -0.753
log2FC [19]: -1.35
log2FC [20]: -1.43
log2FC [21]: 0.872
log2FC [22]: -1.11
log2FC [23]: -0.82
log2FC [24]: -1.96
log2FC [25]: -1.53
log2FC [26]: -0.455
log2FC [27]: 2.28
log2FC [28]: 0.579
log2FC [29]: -1.63
log2FC [30]: 0.457
log2FC [31]: -1.26
log2FC [32]: 0.814
